# Values of other authors, collected in patent US11702443B2, “Therapeutic agents and methods” (Pop Test Oncology LLC, priority 2016, dated 2023).
# At least one compound was matched to its structure with a doubt left.
# Tested on: Mycobacterium tuberculosis ATCC 9360 H37Rv
# Conditions: cited from earlier work
smiles,measurement,value
"CO[C@H]1/C=C/O[C@@]2(C)Oc3c(C)c(O)c4c(O)c(c(/C=N/N5CCN(C)CC5)c(O)c4c3C2=O)NC(=O)/C(C)=C\C=C\[C@H](C)[C@H](O)[C@@H](C)[C@@H](O)[C@@H](C)[C@H](OC(C)=O)[C@@H]1C [Rifampicin, reference compound]",MIC (μg/ml) reference 1 (1966),0.5 µg/mL
